Results taken from the supplement of paper PMC3334620.
Over roughly 33,000 sequences, “E-score (-0.5 to 0.5)” has its median near -0.016; the highest 2% begin near 0.3. The list shows a part of the results.

Target: T1, Yer184c (UniProt P39961)
T1 sequence: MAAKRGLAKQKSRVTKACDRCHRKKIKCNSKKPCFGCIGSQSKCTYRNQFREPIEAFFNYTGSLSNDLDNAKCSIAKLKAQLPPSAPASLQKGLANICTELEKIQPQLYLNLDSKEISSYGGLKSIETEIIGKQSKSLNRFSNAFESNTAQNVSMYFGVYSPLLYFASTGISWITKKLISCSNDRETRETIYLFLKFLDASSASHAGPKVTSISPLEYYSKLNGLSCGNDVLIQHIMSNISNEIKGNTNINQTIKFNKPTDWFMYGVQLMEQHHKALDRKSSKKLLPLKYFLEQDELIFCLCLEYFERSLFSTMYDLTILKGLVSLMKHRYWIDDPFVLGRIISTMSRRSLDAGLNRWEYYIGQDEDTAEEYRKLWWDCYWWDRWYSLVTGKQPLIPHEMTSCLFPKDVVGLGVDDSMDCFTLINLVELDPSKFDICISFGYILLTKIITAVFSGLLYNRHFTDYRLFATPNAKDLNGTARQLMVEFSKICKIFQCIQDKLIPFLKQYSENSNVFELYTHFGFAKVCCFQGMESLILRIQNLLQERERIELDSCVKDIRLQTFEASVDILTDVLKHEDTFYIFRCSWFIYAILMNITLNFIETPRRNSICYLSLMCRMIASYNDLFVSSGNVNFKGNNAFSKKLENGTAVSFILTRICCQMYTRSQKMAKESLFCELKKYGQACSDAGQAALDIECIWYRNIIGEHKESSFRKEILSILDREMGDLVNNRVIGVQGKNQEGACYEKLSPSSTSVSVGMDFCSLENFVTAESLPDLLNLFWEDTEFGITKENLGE
Assay: PBM E-score (8-mer binding enrichment) (E-score (-0.5 to 0.5)); higher = stronger / more preferred TF binding
Settings: protein concentration: 100 nM; construct: GST-full length
Procedure, shortened: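 Universal all-10-mer Agilent arrays, double-stranded by primer extension on fresh or once-stripped slides, were probed with about 100-200 nM GST-tagged yeast transcription factors made by PURExpress. Fluorescent anti-GST detected bound protein, and masliner normalised the scans. E-scores from the Universal PBM Analysis Suite were given to each ungapped eight-base word pooled with its reverse complement.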

Sequence	PBM E-score
GACTAGGC	-0.173
AGGGTCGG	-0.0268
AGAGCACT	0.0142
CGGGTATA	0.196
CCCTTGCG	-0.361
TATACCCA	-0.00854
ATGCGTAA	-0.234
CGCAAGTC	-0.215
AGTGTATC	-0.0625
AGTCCCCG	-0.141
AATTGATC	0.0994
AGTGAGAT	-0.107
CCGCTGGC	-0.164
GAAACACC	0.114
CATAAGGG	-0.00069
AGCCTATA	-0.0122
GCCCACTA	-0.2
CACTGTCC	0.0762
AACTGATA	0.102
CTGCAACC	-0.182
CTCTCCGC	0.093
CATTTGAA	0.0953
GTACTTTA	-0.0471
CCCAGCCG	0.0716
GTTAGTTA	0.178

Sequence	PBM E-score
AATAGATG	0.0604
CGTGCTGC	-0.0543
GCCGAGCC	0.34
ACACTCGA	0.0367
ATGACCGA	0.0527
CTACCCGA	0.0786
AGAGGCGG	-0.0436
AAACTCTG	0.118
CGGGCACC	0.144
AAAAGTTC	0.0949
GGTACCAA	-0.0707
ATTTTCTA	0.165
TAGTGAAA	0.00664
GGACCTTA	-0.099
CGTACTAG	-0.0141
CCCTAGGC	-0.171
AAAGGTGC	-0.206
GGGACTAA	-0.0762
AGCTGCTC	-0.156
CAGCTTAC	-0.00815
AAGTCCAA	0.0676
ATCGTACC	-0.193
AATTTCCA	0.145
CACGCAAA	-0.0728
GGTAGGCA	-0.19

3 entries from above, as labelled records.
GTACTTTA
  PBM E-score = -0.0471
CCCAGCCG
  PBM E-score = 0.0716
GGTAGGCA
  PBM E-score = -0.19

Later entries:

Sequence	PBM E-score
AAAAGGGC	-0.118
AGGTAGAA	-0.0769
CGAGTTGA	0.0776
GCACGGAA	0.159
GCGCATCA	-0.0524
GGACCAGA	-0.131
TAAGACCA	-0.0956
CTCCACCA	-0.217
GGTCTAAA	0.00102
ACATACGG	0.00388
ACTTTCTA	-0.0235
GAAACAAC	0.182
CGAGCTGC	0.0761
AAGCGACC	0.11
TACAGGGA	-0.212
CGTCGGAC	0.0076
AACGACCA	-0.0798
GGGGGCTA	-0.34
AGAACTGG	0.208
GGAGGACA	-0.0724
ATGCTTCA	-0.0764
AATACTGA	0.0147
AATGGCAT	0.164
CACTCCTC	-0.211
CTACGACC	-0.209

Sequence	PBM E-score
AGCTCCGG	0.313
CCGGTCTA	0.0628
AACCATTA	0.129
AGGAGCTC	-0.153
AGACCATC	-0.259
GAGGATGA	-0.0701
CAGGTCTA	-0.0675
CACGAGCG	-0.186
GGACCCAC	-0.182
GACAAAGA	0.124
GGCACAAA	0.0967
CAGTGTAA	0.149
CGGCCTGA	0.0451
AAGCGGCC	-0.09
ATTTAGAA	0.118
CCGTACCG	0.0861
CTGGTCAA	-0.0747
CTAGACCA	-0.161
ACGGAAGA	0.262
ATATTATA	0.163
ATACACCG	0.145
CGCGAAAA	0.0676
CCTAATCG	0.123
CTTTTGAA	0.173
CTTGGAGA	-0.0754

Part of the list above, bar-delimited.
Sequence | PBM E-score
CAGGTCTA | -0.0675
CACGAGCG | -0.186

Next entries

Sequence	PBM E-score
AAGTCTCA	-0.243
CTAATGAA	0.231
AAAGATAG	0.0599
AACGCATC	-0.116
AGTTAAGC	0.0327
ACTAACAC	-0.00933
AGTCTCGA	-0.0755
CTTCTCCC	-0.169
GTCCAGCA	-0.0918
CTGATACC	-0.102
AGAAATCG	0.156
GACTCATA	-0.00441
CGGCGCTC	0.121
TCGCGTAA	0.121
ATAATACG	0.153
AACGGAAA	0.408
ACATACTG	-0.0524
CACTCACG	-0.0258
CAGGCCCG	-0.0236
CGGTGCTC	0.0276
CCCCGTTA	-0.271
AACGCTCT	-0.246
CAGCCCAG	-0.289
AGGAGGTC	-0.316
CGATCTTC	0.00402

In a second layout: results already given.
Sequence,PBM E-score
GACTAGGC,-0.173
GAAACACC,0.114
GTACTTTA,-0.0471
CCCTAGGC,-0.171
AATGGCAT,0.164
AGTCTCGA,-0.0755

Next part

Sequence	PBM E-score
AACTACGG	0.00041
ACATACCT	-0.242
GCGATTCC	-0.0469
GTACTGAC	-0.0355
CTTACAAG	-0.202
AAATTTGA	0.176
CGGGCAGC	0.204
CACCCGCG	0.183
GCGGGTCA	0.0612
AGCCGTTA	0.239
CTAGTCAG	-0.168
GCCGCGGA	0.386
GAGACTAA	0.124
CAGAGTCA	-0.169
TATTCCCA	0.0619
AGATGGTC	-0.24
CGGATCCG	0.445
GGCCCTAA	0.0976
TATAGGGA	-0.0722
ACTCCCCA	-0.195
CGTAATCA	0.133
AGTGTCTA	0.183
CCGCCCCA	0.0116
CTTACTCC	0.00461
ATGGGTAA	0.119

Sequence	PBM E-score
GTGGCAAC	0.0181
CAACACCG	0.0665
CTATAGTC	-0.115
AAGAGTAA	0.0671
ACTTACAA	0.129
AACCGTAT	-0.212
ATTCCTCG	0.0775
CCTAAGGA	-0.0765
AGGCGACT	-0.1
CCCTATGC	-0.364
AGAAAGCG	-0.0479
ACTTCGGA	0.337
ACCGACCC	-0.0389
GAGCCCGA	0.0143
ACCGCAGT	-0.096
AAAAGGAC	0.0305
AACCACTG	0.0502
AAATGCCG	0.353
CCGAACCA	0.154
TCGGAGCA	0.212
AGCCCGCA	-0.159
ACCTGAGA	-0.123
